No constants are given. Whether binding was seen depends on the method and setting. In cells and extracts the contact can be indirect. Some entries that bind do so weakly or less than the wild type.
Columns and labels:
[1] = target: SND1-FLAG (full-length SND1 with a single C-terminal Flag tag) (human) (UniProt Q7KZF4); assay: co-IP; […]; 50 mM Tris-HCl pH 7.5, 150 mM NaCl, 1% Triton-X 100; […]
[2] = target: NSP9-V5 (SARS-CoV-2) (UniProt P0DTD1); assay: co-IP
[3] = target: staphylococcal nuclease domain-containing protein 1 (SND1), endogenous (human (endogenous in A549^ACE2)) (UniProt Q7KZF4); assay: proximity ligation

Sequences of proteins named here, by UniProt entry; tags and fusion partners are left off. A change or cut given only in a name is not applied to a line headed by its entry. A line that says so, or that is headed by a name, gives the form on record, which may keep a tag or linker.
UniProt Q7KZF4: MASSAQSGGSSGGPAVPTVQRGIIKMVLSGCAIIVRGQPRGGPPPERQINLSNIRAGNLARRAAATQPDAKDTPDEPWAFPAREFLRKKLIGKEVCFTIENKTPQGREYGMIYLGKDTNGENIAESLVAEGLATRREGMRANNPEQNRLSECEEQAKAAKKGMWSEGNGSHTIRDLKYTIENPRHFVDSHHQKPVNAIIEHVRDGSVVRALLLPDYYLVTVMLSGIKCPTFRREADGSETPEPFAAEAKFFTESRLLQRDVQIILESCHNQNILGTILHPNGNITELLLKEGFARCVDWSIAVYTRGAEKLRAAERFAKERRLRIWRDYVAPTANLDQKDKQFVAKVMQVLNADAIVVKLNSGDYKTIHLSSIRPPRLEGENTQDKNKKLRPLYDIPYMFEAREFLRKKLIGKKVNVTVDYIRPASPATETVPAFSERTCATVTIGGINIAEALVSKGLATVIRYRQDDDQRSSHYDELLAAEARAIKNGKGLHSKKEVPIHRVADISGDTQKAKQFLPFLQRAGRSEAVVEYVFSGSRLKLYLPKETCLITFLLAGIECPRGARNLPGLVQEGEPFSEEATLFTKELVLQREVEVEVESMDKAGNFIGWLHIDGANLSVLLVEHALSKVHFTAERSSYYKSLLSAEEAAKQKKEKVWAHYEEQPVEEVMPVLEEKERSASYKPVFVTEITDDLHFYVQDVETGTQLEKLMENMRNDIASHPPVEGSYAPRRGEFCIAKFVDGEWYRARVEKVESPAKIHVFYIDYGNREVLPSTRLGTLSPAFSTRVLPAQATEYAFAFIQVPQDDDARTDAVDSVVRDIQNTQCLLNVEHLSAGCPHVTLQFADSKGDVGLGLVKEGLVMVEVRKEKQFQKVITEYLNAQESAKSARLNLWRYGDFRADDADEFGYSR
SND1-FLAG with the SNase 3 domain deleted (SN3: 341-496 removed) (Q7KZF4, form named): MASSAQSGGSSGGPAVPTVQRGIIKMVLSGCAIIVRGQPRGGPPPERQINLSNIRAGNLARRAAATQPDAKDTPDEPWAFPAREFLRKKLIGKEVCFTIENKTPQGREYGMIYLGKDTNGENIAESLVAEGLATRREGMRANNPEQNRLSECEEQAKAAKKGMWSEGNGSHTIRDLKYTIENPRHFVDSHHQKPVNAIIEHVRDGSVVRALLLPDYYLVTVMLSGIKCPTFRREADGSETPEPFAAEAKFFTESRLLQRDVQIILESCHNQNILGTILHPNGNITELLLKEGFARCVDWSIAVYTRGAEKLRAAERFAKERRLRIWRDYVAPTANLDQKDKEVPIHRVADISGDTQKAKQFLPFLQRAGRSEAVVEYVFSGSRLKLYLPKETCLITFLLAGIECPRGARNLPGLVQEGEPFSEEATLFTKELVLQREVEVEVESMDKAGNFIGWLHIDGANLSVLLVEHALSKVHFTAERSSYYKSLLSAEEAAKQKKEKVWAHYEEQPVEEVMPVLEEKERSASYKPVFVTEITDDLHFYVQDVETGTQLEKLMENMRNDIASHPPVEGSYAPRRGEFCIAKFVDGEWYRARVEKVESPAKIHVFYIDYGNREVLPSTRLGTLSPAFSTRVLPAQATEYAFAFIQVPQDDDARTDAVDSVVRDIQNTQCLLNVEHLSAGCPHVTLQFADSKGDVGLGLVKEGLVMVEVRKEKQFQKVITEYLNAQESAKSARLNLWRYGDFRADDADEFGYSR

Substance	binding [2]	also measured
NSP9-V5 (from UniProt P0DTD1 4141-4253)	–	binding [1]: binds
SND1-FLAG with the SNase 3 domain deleted (SN3: 341-496 removed) (from UniProt Q7KZF4 1-910)	no binding	–
SND1-FLAG (full-length SND1 with a single C-terminal Flag tag) (from UniProt Q7KZF4 1-910)	binds	–
SARS-CoV-2 NSP9 made during infection (from UniProt P0DTD1 4141-4253)	–	binding [3]: binds

From publication PMC10617981 (2023)
